This passage reports binding results from article PMC9616737 (2022).

Sequences of proteins named here, by UniProt entry; tags and fusion partners are left off. A change or cut given only in a name is not applied to a line headed by its entry. Residues count along the entry.
UniProt P02462: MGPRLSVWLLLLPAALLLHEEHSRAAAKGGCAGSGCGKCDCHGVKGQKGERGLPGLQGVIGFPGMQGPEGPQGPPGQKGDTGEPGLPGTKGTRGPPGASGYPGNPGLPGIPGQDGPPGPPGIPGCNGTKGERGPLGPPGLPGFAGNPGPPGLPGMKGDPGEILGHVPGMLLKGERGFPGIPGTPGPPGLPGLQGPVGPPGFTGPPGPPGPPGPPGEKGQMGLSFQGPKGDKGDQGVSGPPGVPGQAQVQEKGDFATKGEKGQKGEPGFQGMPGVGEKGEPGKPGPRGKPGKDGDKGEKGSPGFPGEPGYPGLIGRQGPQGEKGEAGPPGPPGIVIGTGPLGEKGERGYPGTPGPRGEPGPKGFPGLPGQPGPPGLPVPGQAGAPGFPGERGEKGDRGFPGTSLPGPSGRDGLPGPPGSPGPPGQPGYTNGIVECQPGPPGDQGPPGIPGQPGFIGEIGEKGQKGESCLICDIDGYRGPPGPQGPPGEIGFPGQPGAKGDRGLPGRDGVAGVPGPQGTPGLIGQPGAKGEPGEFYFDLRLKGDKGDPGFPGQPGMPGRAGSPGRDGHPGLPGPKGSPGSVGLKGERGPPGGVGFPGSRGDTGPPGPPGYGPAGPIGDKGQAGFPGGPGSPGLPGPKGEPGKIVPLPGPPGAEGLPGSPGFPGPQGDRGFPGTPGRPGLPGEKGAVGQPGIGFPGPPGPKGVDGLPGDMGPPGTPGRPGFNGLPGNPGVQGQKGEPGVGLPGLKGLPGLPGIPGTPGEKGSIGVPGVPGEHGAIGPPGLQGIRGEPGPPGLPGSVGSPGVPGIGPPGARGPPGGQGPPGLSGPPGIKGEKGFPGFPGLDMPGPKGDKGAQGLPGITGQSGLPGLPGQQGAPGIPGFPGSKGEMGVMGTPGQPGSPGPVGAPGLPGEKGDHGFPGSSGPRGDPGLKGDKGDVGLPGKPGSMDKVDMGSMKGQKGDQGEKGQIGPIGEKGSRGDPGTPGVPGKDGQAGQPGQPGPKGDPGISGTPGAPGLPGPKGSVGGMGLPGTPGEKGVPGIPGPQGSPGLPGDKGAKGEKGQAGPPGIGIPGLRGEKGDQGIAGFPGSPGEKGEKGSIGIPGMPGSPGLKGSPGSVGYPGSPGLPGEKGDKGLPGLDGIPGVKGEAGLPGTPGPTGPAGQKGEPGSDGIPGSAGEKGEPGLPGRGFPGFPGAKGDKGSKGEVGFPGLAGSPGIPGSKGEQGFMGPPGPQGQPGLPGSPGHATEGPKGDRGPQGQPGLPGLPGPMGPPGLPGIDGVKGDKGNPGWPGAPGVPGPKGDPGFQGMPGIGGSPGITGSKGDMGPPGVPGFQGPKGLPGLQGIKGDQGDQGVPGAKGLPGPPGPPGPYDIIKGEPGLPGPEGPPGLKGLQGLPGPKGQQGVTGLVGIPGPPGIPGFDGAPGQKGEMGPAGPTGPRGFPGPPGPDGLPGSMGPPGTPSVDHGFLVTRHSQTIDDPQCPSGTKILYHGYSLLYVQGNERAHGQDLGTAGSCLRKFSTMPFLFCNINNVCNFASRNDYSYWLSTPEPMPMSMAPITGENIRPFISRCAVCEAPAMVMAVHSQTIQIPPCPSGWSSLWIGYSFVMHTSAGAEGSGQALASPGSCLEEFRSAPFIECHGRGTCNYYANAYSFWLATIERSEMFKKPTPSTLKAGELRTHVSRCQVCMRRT
UniProt P19137: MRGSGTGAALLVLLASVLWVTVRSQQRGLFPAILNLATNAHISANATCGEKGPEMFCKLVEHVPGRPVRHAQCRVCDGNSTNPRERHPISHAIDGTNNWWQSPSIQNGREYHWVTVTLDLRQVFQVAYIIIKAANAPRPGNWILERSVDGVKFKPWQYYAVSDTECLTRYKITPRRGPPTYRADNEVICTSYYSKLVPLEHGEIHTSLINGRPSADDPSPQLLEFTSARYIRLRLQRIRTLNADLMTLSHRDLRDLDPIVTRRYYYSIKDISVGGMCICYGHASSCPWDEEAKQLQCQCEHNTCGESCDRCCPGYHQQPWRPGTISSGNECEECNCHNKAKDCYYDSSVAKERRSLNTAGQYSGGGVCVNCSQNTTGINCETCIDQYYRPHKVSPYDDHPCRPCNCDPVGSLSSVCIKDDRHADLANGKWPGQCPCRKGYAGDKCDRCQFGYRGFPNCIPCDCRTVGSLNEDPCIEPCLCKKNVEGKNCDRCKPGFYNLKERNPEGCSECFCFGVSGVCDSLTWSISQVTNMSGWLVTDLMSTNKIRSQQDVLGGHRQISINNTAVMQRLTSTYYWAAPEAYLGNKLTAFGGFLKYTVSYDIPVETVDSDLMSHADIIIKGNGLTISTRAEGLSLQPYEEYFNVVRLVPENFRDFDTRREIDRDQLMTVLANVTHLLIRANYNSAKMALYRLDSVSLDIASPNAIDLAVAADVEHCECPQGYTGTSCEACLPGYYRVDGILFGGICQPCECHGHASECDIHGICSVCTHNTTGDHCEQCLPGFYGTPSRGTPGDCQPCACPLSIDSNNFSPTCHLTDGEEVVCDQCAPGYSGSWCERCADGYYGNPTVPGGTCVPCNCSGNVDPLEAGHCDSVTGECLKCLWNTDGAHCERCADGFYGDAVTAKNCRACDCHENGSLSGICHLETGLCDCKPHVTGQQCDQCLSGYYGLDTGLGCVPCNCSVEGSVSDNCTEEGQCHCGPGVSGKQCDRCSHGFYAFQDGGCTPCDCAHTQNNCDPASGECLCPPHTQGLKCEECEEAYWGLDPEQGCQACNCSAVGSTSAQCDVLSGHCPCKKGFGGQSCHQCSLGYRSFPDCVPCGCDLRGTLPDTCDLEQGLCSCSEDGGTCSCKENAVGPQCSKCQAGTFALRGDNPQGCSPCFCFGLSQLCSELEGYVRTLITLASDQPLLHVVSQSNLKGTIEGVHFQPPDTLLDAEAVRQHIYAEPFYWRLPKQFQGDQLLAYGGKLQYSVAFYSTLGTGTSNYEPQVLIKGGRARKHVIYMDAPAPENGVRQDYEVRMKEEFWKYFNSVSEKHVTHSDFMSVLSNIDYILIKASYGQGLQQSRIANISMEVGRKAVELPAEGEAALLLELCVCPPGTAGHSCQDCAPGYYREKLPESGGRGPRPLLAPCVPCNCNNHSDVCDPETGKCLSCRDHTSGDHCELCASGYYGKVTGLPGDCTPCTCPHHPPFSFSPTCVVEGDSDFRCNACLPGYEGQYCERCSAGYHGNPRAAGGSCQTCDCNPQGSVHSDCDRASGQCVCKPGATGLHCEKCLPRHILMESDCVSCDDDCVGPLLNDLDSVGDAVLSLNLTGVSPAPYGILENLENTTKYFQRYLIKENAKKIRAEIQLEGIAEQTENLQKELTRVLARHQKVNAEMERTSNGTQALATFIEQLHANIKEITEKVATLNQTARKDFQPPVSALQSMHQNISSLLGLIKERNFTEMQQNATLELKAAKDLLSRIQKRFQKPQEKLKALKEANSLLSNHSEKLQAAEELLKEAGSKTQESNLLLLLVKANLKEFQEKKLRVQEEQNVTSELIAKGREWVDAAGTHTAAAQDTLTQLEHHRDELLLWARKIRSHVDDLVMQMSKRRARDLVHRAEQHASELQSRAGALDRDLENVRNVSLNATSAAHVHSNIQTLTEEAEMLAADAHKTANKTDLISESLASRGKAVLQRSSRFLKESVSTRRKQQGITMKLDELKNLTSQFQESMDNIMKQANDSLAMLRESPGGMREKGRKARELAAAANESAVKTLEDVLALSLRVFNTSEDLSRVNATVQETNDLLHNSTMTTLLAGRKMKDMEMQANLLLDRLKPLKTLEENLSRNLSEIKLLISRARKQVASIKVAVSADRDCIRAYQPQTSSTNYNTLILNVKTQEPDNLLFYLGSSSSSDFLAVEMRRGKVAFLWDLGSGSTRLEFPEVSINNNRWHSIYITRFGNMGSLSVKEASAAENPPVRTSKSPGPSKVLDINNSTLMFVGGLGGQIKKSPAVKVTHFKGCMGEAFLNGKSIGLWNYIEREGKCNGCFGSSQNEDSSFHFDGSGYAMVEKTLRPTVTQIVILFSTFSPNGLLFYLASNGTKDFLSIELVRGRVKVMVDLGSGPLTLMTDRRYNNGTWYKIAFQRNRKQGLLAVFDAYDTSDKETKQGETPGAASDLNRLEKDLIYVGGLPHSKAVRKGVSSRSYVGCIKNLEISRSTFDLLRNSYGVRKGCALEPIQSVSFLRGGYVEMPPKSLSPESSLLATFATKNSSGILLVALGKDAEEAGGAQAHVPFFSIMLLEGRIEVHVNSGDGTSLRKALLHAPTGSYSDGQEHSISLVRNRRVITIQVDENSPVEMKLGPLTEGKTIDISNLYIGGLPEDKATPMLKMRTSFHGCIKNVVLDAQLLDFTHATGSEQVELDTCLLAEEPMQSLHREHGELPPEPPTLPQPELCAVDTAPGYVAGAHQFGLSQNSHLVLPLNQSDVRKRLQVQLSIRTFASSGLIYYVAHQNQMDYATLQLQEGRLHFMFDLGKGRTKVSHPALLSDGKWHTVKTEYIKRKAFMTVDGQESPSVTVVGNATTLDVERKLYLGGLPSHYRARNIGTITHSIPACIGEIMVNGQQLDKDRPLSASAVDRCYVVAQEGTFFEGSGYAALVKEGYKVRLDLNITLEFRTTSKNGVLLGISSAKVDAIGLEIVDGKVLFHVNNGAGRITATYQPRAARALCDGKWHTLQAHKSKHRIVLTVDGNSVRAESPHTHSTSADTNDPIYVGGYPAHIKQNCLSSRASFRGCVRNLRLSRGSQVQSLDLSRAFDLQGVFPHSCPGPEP
UniProt P04004, residues 20-478: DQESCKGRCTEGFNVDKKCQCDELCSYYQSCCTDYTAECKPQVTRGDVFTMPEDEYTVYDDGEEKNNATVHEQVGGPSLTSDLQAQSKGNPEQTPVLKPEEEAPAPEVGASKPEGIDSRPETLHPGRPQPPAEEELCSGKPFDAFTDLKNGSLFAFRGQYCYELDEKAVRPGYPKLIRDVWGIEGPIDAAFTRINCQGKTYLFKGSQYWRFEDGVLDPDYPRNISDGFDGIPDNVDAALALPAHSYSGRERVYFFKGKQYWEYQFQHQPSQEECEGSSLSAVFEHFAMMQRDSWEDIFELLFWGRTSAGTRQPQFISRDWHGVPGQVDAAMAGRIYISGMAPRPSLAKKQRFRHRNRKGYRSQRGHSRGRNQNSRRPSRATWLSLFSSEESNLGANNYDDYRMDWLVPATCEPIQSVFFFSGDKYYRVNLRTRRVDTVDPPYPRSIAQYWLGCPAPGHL

Results are given in words; binding and its absence hold for the method and conditions named. For some of these results: In cells and extracts the contact can be indirect. Some entries that bind do so weakly or less than the wild type. For some of these results: Tags and fused reporters may be left off the sequences shown.

Assay [1] concerns the target T1, embigin (mouse, endogenous in sebaceous gland cells) (mouse (endogenous in tail skin)) (UniProt P21995).
T1 sequence: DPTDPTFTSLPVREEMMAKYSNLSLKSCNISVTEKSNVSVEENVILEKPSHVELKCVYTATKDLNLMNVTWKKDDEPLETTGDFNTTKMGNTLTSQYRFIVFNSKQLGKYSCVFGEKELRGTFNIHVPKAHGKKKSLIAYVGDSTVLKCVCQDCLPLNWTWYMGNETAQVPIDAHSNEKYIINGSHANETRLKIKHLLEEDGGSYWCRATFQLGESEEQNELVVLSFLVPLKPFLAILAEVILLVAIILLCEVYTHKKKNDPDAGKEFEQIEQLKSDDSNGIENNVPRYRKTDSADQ
As to the kind of experiment: proximity ligation; Duolink PLA on 12 μm cryosections of mouse tail skin fixed in 4% PFA; PLUS and MINUS probes cross-linked directly to the EMB (G7.43.1) and MCT1 (AB1286-1) antibodies.

The target in a further assay is collagen IV (UniProt P02462). Nature of the assay: solid-phase binding assay (DELFIA); ligand coated on the plate (5 μg/cm^2, overnight at +4°C), blocked with Delfia Diluent; soluble GST-tagged receptor in Delfia Assay Buffer ± 2mM MgCl2 or MnCl2 or 5mM EDTA, 1h at RT; detected with Europium-labeled anti-GST antibody; both purified.
For the next assay, the target named is laminin 1 (UniProt P19137). The description is as above.
For another assay, the target named is vitronectin (UniProt P04004). The assay is described as above.

B1: monocarboxylate transporter 1 (MCT1; mouse, endogenous in sebaceous gland cells) (protein, UniProt P53986 1-493)
chain: MPPAIGGPVGYTPPDGGWGWAVLVGAFISIGFSYAFPKSITVFFKEIEVIFSATTSEVSWISSIMLAVMYAGGPISSILVNKYGSRPVMIAGGCLSGCGLIAASFCNTVQELYLCIGVIGGLGLAFNLNPALTMIGKYFYKKRPLANGLAMAGSPVFLSTLAPLNQAFFDIFDWRGSFLILGGLLLNCCVAGSLMRPIGPEQVKLEKLKSKESLQEAGKSDANTDLIGGSPKGEKLSVFQTINKFLDLSLFTHRGFLLYLSGNVVMFFGLFTPLVFLSSYGKSKDFSSEKSAFLLSILAFVDMVARPSMGLAANTKWIRPRIQYFFAASVVANGVCHLLAPLSTTYVGFCVYAGVFGFAFGWLSSVLFETLMDLIGPQRFSSAVGLVTIVECCPVLLGPPLLGRLNDMYGDYKYTYWACGVILIIAGIYLFIGMGINYRLLAKEQKAEEKQKREGKEDEASTDVDEKPKETMKAAQSPQQHSSGDPTEEESPV
Take B1: the binding entry in assay [1] is on record as “binds”.

B2: recombinant embigin extracellular domain GST-fusion protein (EMB-GST) (domain or fragment)
chain: DGSAPDSPFTSPPLREEIMANNFSLESHNISLTEHSSMPVEKNITLERPSNVNLTCQFTTSGDLNAVNVTWKKDGEQLENNYLVSATGSTLYTQYRFTIINSKQMGSYSCFFREEKEQRGTFNFKVPELHGKNKPLISYVGDSTVLTCKCQNCFPLNWTWYSSNGSVKVPVGVQMNKYVINGTYANETKLKITQLLEEDGESYWCRALFQLGESEEHIELVVLSYLVP
For B2, the binding result with collagen IV, in the assay with laminin 1 and with vitronectin was “no binding (tested: 200 nM)” throughout.
